The list shows a part of the results.
The sequences below were run against T1, OsSMF1 (Oryza sativa, UniProt Q6ZLB0 1-436) (assay: protein-binding microarray (RPBM); PBS, 2% BSA, 51.3 ng/ul salmon testes DNA, 50 uM zinc acetate, 200 nM TF, 25 C, 1 h; high values mean tight binding). Conditions: protein: recombinant; tags: N-terminal polyhistidine and DsRed monomer fusion (pET32a); chain copies: 2; label: CyDye5-dUTP incorporated in the synthesized complementary strand; 3' TTTTT single-stranded linker to array surface; dsDNA, one strand shown.
T1 sequence: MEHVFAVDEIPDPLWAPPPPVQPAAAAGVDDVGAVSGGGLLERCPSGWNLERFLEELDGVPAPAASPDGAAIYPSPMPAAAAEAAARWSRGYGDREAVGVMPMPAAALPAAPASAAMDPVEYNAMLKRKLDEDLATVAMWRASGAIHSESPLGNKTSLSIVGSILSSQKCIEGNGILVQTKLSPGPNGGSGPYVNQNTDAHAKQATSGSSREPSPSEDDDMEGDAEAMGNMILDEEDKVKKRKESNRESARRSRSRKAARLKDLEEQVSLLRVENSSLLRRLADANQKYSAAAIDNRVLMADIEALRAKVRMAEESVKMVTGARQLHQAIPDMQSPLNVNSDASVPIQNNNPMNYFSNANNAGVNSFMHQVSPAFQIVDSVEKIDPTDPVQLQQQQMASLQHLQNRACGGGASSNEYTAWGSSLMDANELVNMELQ
Summary of the method: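 Per-feature fluorescence intensity (arbitrary units), read on an Axon 4000B scanner, is the binding signal. Transcription factors carrying an N-terminal polyhistidine tag and DsRed fusion were expressed in E. coli BL21-CodonPlus and purified on Ni–NTA. A custom Agilent array, made double-stranded by primer extension with Cy5-dUTP and blocked with 2% BSA, was incubated with 200 nM protein in PBS, 2% BSA, salmon testes DNA and 50 µM zinc acetate at 25 °C for 1 h and then washed.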

Compared with “ATAAAGCACGAGGTGTACTTCTCGGCCAAATTATGGATCACGGAGTCACCTAGTGCAG”, “GATTAAATGGAAGAGAGAATGAATAATTAAGATTTAAAGACGGAGTCACCTAGTGCAG” is higher in binding signal: 3140 fluorescence intensity (a.u.) for the first, 27400 fluorescence intensity (a.u.) for the second.

Compared with “TCTTATTCTGATATGTCCTTAGTGACCTTGTGAATGCGCTCGGAGTCACCTAGTGCAG”, “CCACGCGGCCGCGTCCAGGTCATCGTCGTCGCCTCGCCTCCGGAGTCACCTAGTGCAG” is higher in binding signal: 3200 fluorescence intensity (a.u.) for the first, 7200 fluorescence intensity (a.u.) for the second.

First: TTCGTTTGGCTCAAACACGACCGAGATGACGTGGCACGTGCGGAGTCACCTAGTGCAG
Second: GATGGTGAGGTTGGCGTGTAGGTGCGGGCAGCTGTTGTTTCGGAGTCACCTAGTGCAG
The binding signal of the first is higher: 23800 fluorescence intensity (a.u.) for the first, 4300 fluorescence intensity (a.u.) for the second.

Compared with “ACGAACCACGTCAGCCGAAAACGGGATCAATACTAGCTTTCGGAGTCACCTAGTGCAG”, “ACTCGAGGGAAGGGGATTGGGAGTTTACATGAGGGAATTGCGGAGTCACCTAGTGCAG” is lower in binding signal: 5240 fluorescence intensity (a.u.) for the first, 4070 fluorescence intensity (a.u.) for the second.

Compared with “TTGAGGCCGTAGCCTAAGAGTGTCACGCCGACGCCGATGACGGAGTCACCTAGTGCAG”, “GACATGTCACTGGTGTCACACATCATACGATGTCAGCGCCCGGAGTCACCTAGTGCAG” is higher in binding signal: 3480 fluorescence intensity (a.u.) for the first, 5910 fluorescence intensity (a.u.) for the second.

First: GTCTAAATAATAAGAGGCTGACATGTCGGTCCCACGTGATCGGAGTCACCTAGTGCAG
Second: CTCTCTCTCTCTCGGCGTCGCTTCCCACCGACGCCGCCCACGGAGTCACCTAGTGCAG
The binding signal of the first is higher: 6750 fluorescence intensity (a.u.) for the first, 3800 fluorescence intensity (a.u.) for the second.

Compared with “CAGTAAAGCTTGGTCATTATTATTGTTGACACATATGAGTCGGAGTCACCTAGTGCAG”, “GTATTGACCGACCCCGATCCCACGCACGCACGCACGCACCCGGAGTCACCTAGTGCAG” is higher in binding signal: 3720 fluorescence intensity (a.u.) for the first, 3820 fluorescence intensity (a.u.) for the second.

Compared with “CTCACTACAGCTAGCTAACCGAGAGCCACACGTCGGTGACCGGAGTCACCTAGTGCAG”, “ACCGCCGTTGCTAGTGTATTCCAGGCGAGTACCCACGTGTCGGAGTCACCTAGTGCAG” is lower in binding signal: 4220 fluorescence intensity (a.u.) for the first, 3700 fluorescence intensity (a.u.) for the second.

Compared with “TGAAGAGATAATCCTAATGCTGCAGATAAACTCTTCCAAACGGAGTCACCTAGTGCAG”, “TCCGTTCCCGGCCGCGGCAGGATCACGGTGTTCTCACGCCCGGAGTCACCTAGTGCAG” is higher in binding signal: 4160 fluorescence intensity (a.u.) for the first, 26300 fluorescence intensity (a.u.) for the second.

Going from “GAGAGGAGGGGAAAGAGAGAAGGTGATGATGTGGCATTCTCGGAGTCACCTAGTGCAG” to “GCTTCTCCTTCCTCCCCTCCGCGGCCGATCGCGATGGAACCGGAGTCACCTAGTGCAG”, the binding signal falls from 16900 fluorescence intensity (a.u.) to 3400 fluorescence intensity (a.u.).

Compared with “CCATCAATCCACCGCCCCGCCGCGTCTTCTCCTCGTCGGCCGGAGTCACCTAGTGCAG”, “GTATTGATCTGATGATCGAGTTGTGGTTATGCCCTTAAGACGGAGTCACCTAGTGCAG” is lower in binding signal: 3210 fluorescence intensity (a.u.) for the first, 3200 fluorescence intensity (a.u.) for the second.

Going from “TGAACCGGGCCTTTGTTTATTGCTCAATCAATTAAATGTTCGGAGTCACCTAGTGCAG” to “CCCATTGGCCCACACCGCCAGGTCACTCCACATCCCAACCCGGAGTCACCTAGTGCAG”, the binding signal rises from 3250 fluorescence intensity (a.u.) to 6500 fluorescence intensity (a.u.).

Going from “AATTTTACAACCATTTATTTCTAATCGATTTCGTCATTTGCGGAGTCACCTAGTGCAG” to “CTCTAAGCAACTATGTGTCCGTGTGCACACGCGGCCACGCCGGAGTCACCTAGTGCAG”, the binding signal rises from 3510 fluorescence intensity (a.u.) to 3720 fluorescence intensity (a.u.).

Going from “CTCTCTCTCTCTCTCACTTATCCACTTTTAACTAAATATTCGGAGTCACCTAGTGCAG” to “TTAAGGACGATTTTGTAATTCAGCTGACAAGACGAGGGATCGGAGTCACCTAGTGCAG”, the binding signal rises from 3760 fluorescence intensity (a.u.) to 4300 fluorescence intensity (a.u.).

Going from “GCATGCAGGGGCTGTGACCAGTGGAAACCCGTCATCTGTGCGGAGTCACCTAGTGCAG” to “ACAGTACACTTGTGCTGATCTAATCACATTTCAACTGTCTCGGAGTCACCTAGTGCAG”, the binding signal falls from 4020 fluorescence intensity (a.u.) to 3350 fluorescence intensity (a.u.).

First: TGATTGGCCCACACCTGTCAGTCACCTAGCTCCGGGCCGGCGGAGTCACCTAGTGCAG
Second: GTGTGCGTGCGTGGCTAACTCCTCCTCACCCTCGCTCGATCGGAGTCACCTAGTGCAG
The binding signal of the first is lower: 3760 fluorescence intensity (a.u.) for the first, 8040 fluorescence intensity (a.u.) for the second.

Going from “ACATTCTAGCCATTCATTCTTCACACCTCATTTAATCCTACGGAGTCACCTAGTGCAG” to “CCGCTTTTCCCCGCAAAGCCACGCCACGATGGCCTCCTCGCGGAGTCACCTAGTGCAG”, the binding signal rises from 3280 fluorescence intensity (a.u.) to 6080 fluorescence intensity (a.u.).

Going from “GCGTCCTCCTCTCCTCGGCGTGGAGAGAGAAGGTAGGGAGCGGAGTCACCTAGTGCAG” to “AGGTGGAGGTGGAGCGGGTGGTTGTCCGGCGTCAGGTTGACGGAGTCACCTAGTGCAG”, the binding signal rises from 3190 fluorescence intensity (a.u.) to 4280 fluorescence intensity (a.u.).

Going from “GCTCGCTAATCGCTATAAACCCTACTCCGAAATCCGATTACGGAGTCACCTAGTGCAG” to “CCGCGTTGACATCACAAGGCACGTGTCATCGTTGCCGAGCCGGAGTCACCTAGTGCAG”, the binding signal falls from 14600 fluorescence intensity (a.u.) to 11600 fluorescence intensity (a.u.).

First: TTTGAGTTCACACACGATGCGAGAATCCACCGTTGGGCTGCGGAGTCACCTAGTGCAG
Second: TTGCAACACATCACCTCTGACGACGTAGCCTACCTTGACACGGAGTCACCTAGTGCAG
The binding signal of the first is higher: 21000 fluorescence intensity (a.u.) for the first, 5750 fluorescence intensity (a.u.) for the second.

Compared with “AGGTGGAGACACGTGGAGGAGTCGCATGTGGACATCACAGCGGAGTCACCTAGTGCAG”, “GCTGTTTTCTTCTACATTGCGTCCGCGTGGCAATCCAGTCCGGAGTCACCTAGTGCAG” is higher in binding signal: 5000 fluorescence intensity (a.u.) for the first, 8770 fluorescence intensity (a.u.) for the second.

From publication PMC7819943, “Rice protein-binding microarrays: a tool to detect cis-acting elements near promoter regions in rice”
